Source: the supplement of paper PMC10849652
The list shows a part of the results.

Amino acid sequences for entries named in this document (tags omitted). A change or cut given only in a name is not applied to a line headed by its entry.
UniProt Q9UH92: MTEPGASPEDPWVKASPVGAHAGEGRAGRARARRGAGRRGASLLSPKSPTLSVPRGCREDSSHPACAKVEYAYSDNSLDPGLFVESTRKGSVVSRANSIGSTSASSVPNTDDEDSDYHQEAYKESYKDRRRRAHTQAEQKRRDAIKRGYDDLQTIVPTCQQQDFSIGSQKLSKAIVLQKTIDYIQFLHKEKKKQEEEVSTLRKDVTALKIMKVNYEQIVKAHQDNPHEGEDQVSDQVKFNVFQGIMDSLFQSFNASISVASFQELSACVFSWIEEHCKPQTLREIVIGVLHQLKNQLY
UniProt O75030: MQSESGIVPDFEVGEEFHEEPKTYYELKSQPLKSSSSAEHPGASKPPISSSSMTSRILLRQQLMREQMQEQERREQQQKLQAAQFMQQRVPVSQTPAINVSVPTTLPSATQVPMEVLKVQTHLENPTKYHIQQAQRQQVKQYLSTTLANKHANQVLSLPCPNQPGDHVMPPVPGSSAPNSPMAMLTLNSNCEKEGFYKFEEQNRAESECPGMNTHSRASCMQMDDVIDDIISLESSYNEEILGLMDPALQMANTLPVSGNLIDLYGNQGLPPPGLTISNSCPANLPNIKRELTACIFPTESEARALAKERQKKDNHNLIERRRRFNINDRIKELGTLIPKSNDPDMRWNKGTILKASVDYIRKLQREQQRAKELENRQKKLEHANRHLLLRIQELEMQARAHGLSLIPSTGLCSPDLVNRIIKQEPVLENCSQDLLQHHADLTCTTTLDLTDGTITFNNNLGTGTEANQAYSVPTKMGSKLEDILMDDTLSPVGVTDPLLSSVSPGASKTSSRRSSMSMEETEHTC
UniProt Q96BX8: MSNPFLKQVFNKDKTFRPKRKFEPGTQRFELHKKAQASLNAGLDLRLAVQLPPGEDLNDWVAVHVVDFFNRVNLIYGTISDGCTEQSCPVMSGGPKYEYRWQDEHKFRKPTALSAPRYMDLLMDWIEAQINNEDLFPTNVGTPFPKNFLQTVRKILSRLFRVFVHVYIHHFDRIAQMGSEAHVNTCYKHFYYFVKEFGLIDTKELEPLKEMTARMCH
UniProt Q9UJG1: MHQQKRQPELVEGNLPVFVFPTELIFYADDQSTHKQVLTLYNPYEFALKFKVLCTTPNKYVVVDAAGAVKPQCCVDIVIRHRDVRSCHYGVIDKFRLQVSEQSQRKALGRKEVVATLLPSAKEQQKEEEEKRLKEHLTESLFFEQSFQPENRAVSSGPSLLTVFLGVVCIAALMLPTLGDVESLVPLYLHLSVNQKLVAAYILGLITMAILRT
UniProt O95396: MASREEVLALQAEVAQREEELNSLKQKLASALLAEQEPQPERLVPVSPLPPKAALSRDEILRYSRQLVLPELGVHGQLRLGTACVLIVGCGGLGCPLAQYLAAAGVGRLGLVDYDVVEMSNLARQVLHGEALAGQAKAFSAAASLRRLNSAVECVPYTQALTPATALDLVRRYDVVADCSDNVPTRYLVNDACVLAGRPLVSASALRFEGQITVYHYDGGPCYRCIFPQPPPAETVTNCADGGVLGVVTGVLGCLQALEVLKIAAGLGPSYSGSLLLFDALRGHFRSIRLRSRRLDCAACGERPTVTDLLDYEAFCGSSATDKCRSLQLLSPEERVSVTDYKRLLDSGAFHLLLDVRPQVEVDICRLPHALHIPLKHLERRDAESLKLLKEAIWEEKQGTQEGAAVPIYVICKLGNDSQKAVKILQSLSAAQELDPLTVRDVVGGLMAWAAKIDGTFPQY
UniProt Q9UI43: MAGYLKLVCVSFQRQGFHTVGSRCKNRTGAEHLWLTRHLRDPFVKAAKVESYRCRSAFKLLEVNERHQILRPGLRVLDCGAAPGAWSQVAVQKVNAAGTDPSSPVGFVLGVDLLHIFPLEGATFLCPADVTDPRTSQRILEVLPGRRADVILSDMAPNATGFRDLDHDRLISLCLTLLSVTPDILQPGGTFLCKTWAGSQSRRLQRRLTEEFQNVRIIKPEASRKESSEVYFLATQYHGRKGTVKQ
UniProt Q86VX9: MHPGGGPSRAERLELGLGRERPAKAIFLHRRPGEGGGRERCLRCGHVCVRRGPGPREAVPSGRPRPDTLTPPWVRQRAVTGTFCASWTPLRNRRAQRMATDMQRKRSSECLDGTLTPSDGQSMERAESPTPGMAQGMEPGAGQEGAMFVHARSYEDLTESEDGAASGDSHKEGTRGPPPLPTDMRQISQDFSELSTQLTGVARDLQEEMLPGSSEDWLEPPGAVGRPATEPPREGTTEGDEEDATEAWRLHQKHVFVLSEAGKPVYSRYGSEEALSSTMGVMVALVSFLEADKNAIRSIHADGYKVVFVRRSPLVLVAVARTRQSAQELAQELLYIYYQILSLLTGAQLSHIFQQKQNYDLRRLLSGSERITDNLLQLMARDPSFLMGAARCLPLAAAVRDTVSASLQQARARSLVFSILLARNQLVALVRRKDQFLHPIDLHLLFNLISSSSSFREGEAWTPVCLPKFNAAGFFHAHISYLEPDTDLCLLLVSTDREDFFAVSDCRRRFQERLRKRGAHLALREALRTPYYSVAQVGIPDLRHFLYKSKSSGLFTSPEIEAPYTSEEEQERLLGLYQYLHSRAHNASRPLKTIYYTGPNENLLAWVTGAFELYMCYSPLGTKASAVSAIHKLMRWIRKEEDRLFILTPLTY
UniProt Q7Z3K6: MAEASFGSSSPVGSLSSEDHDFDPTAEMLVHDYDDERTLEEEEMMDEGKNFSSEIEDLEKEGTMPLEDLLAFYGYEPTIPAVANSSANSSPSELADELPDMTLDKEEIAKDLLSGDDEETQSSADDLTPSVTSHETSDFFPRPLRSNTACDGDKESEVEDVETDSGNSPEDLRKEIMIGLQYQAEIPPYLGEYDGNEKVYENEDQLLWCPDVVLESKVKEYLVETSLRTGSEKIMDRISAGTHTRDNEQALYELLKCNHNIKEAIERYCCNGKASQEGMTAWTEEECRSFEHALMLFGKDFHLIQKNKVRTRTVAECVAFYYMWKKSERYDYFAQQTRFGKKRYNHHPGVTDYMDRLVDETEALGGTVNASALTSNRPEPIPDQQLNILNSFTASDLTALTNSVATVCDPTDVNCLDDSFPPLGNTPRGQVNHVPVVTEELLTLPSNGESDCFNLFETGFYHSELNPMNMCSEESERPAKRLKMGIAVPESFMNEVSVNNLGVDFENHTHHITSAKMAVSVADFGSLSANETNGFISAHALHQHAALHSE
UniProt P55197: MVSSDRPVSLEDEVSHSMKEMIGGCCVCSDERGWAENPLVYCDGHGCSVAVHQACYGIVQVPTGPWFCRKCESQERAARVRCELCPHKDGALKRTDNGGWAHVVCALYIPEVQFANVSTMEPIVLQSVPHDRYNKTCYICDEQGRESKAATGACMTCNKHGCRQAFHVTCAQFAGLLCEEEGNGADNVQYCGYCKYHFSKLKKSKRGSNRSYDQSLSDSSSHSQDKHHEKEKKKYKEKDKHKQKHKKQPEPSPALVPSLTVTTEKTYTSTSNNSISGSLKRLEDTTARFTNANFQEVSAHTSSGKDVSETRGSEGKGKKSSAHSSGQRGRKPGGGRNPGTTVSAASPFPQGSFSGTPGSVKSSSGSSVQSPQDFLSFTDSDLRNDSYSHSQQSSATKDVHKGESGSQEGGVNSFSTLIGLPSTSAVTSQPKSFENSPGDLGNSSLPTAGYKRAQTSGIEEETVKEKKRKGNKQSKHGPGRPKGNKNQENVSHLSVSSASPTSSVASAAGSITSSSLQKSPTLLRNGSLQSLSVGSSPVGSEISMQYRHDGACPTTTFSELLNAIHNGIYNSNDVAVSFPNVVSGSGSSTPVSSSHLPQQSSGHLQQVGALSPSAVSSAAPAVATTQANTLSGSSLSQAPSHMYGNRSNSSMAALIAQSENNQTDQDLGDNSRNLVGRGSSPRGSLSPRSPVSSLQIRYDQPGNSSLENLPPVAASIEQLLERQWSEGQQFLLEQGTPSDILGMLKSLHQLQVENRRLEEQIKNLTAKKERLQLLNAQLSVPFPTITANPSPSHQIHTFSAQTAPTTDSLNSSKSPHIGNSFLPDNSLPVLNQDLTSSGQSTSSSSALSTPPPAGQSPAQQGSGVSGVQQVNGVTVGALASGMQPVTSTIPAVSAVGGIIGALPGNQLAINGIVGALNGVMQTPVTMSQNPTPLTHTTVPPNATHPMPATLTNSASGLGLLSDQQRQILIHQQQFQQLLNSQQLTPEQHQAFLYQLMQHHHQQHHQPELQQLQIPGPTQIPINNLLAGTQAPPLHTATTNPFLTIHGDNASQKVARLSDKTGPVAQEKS
UniProt Q9Y605: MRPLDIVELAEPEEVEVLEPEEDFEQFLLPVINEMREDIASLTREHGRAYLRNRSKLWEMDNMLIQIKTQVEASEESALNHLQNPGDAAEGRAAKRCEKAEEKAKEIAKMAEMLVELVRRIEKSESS
UniProt P39210: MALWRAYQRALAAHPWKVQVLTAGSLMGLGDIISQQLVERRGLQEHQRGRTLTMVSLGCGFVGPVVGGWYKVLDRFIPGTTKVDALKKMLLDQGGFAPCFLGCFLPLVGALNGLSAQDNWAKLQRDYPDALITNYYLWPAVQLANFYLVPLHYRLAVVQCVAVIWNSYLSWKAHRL
UniProt Q13064: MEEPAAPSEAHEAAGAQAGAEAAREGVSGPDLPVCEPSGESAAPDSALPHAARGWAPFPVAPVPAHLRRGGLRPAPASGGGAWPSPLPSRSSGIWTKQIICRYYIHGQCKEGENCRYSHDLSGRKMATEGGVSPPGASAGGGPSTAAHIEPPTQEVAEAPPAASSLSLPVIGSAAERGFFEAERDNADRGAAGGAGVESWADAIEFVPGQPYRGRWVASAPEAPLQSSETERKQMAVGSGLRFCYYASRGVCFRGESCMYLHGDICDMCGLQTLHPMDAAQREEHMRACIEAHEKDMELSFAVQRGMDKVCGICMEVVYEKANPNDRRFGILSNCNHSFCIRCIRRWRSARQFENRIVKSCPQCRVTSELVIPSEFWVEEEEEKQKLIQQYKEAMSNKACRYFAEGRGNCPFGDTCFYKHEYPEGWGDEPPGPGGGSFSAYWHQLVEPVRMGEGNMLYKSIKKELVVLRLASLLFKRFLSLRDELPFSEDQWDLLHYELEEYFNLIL
UniProt Q9H3L0: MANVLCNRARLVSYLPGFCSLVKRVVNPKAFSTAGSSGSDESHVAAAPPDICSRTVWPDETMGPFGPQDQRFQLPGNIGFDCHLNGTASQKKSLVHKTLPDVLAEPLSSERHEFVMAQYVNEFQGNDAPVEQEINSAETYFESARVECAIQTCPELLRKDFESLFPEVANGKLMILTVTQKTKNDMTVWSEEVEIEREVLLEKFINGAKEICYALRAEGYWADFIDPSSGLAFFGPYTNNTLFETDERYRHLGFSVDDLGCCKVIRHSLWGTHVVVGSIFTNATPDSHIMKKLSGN
UniProt Q8NBR6: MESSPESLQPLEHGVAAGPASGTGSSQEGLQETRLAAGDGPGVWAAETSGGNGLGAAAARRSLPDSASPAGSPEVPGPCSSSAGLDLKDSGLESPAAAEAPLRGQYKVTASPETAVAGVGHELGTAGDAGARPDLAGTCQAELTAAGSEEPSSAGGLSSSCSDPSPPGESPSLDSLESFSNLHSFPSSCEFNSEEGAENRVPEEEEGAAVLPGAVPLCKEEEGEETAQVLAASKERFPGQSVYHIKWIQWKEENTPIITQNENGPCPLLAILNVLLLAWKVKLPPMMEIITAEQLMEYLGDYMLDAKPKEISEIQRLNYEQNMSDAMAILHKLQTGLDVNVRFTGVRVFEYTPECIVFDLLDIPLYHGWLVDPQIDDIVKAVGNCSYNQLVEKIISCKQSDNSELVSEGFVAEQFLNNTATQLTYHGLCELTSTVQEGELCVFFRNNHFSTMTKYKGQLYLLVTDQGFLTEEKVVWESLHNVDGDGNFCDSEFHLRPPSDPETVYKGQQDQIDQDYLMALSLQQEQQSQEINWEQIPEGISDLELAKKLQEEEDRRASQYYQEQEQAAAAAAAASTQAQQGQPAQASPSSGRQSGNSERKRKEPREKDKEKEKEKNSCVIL
UniProt Q9UHC7: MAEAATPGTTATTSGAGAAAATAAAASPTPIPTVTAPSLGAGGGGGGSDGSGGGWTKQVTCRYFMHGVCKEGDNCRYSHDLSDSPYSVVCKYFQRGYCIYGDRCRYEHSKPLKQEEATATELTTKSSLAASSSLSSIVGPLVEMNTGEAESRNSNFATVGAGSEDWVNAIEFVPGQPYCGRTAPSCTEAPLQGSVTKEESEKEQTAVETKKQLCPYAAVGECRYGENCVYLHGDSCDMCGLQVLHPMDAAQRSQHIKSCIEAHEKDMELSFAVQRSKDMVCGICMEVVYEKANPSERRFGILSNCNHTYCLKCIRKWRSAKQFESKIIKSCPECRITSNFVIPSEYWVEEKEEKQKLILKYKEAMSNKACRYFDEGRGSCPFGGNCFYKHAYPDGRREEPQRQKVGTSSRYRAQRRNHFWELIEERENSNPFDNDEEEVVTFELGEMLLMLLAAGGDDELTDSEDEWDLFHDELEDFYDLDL

How the values were obtained:
Experiment in all cases: log2 fold change, soluble protein after heating vs DMSO (PISA); higher = thermal stabilisation; K562 cells, 10 uM, 30 min; active = over 0.2 and 3.5 SD of the protein, either way, in both replicates (recomputed)
[1] = compound: CC1=C(C=C(C=C1)NC(=O)C2=CC(=CC=C2)C(C)(C)C#N)NC3=CC4=C(C=C3)N=CN(C4=O)C
Procedure, shortened: (§1)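 For each measurement, 10 μM compound was applied for 30 min to K562 cells at 2×10^6 cells/mL. Aliquots were heated for 3 min across 48°C-58°C, pooled, and extracted in PBS with 0.5% NP-40 at 4°C; the supernatant after 21,000xg for 90 min was soluble protein. This was quantified by TMTpro 16plex LC-MS/MS with channel sums equalised, and thermal stability was reported relative to control samples from duplicates, on a log2 fold-change scale.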

[2] = compound: CC1=C(C=C(C=C1)NC(=O)C2=CC(=CC=C2)N(C)C)NC(=O)C3=CC=C(C=C3)O
Procedure, shortened: as §1

[3] = compound: CC1=CC=C(C=C1)SC2=C3C=C(SC3=CN=C2)C(=O)N
Procedure, shortened: as §1

[4] = compound: CC1=NC(=CC=C1)C2=C(N=C(N2)C(C)(C)C)C3=CC4=NC=CN=C4C=C3
Procedure, shortened: as §1

[5] = compound: CCCCN(Cc1ccc(C(=O)NO)cc1)C(=O)Nc1ccccc1 [Nexturastat A]
Procedure, shortened: as §1

[6] = compound: CCCS(=O)(=O)Nc1ccc(F)c(C(=O)c2c[nH]c3ncc(Cl)cc23)c1F
Procedure, shortened: as §1

[7] = compound: CCCc1cc(C)[nH]c(=O)c1CNC(=O)c1cc(-c2ccnc(N3CCN(C)CC3)c2)cc2c1cnn2C(C)C
Procedure, shortened: as §1

[8] = compound: CCN(CC)Cc1ccc2cc(COC(=O)Nc3ccc(C(=O)NO)cc3)ccc2c1 [givinostat]
Procedure, shortened: as §1

[9] = compound: CCN(CCCOc1ccc2c(Nc3cc(CC(=O)Nc4cccc(F)c4)[nH]n3)ncnc2c1)CCOP(=O)(O)O [barasertib]
Procedure, shortened: as §1

[10] = compound: CCCS(=O)(=O)Nc1ccc(F)c(C(=O)c2c[nH]c3ncc(-c4ccc(Cl)cc4)cc23)c1F [vemurafenib]
Procedure, shortened: as §1

Measured: log2 fold change

MLX (UniProt Q9UH92)
inactive: [1] 0.035 | [2] -0.027 | [3] 0.082 | [4] 0 | [5] 0.009 | [6] 0.008 | [7] 0.071 | [8] 0.047 | [9] 0.117

MITF (UniProt O75030)
inactive: [1] 0.005 | [4] 0.107 | [10] 0.016 | [7] -0.281 | [8] -0.002

MOB3A (UniProt Q96BX8)
inactive: [1] 0.227 | [2] 0.299 | [3] 0.035 | [4] 0 | [10] -0.081 | [6] 0.125 | [7] -0.056 | [8] -0.008 | [9] 0.071

MOSPD1 isoform 3 (UniProt Q9UJG1)
inactive: [7] -0.018 | [8] 0.02

MOCS3 (UniProt O95396)
inactive: [1] -0.106 | [3] -0.006 | [4] 0.127 | [5] -0.096 | [10] -0.072 | [6] 0.034 | [7] 0.499 | [8] -0.03 | [9] 0.093

MRM2 (UniProt Q9UI43)
inactive: [3] 0.046 | [10] 0.047 | [6] -0.078 | [8] 0.001

MON1A (UniProt Q86VX9)
inactive: [1] 0.055 | [2] 0.004 | [3] -0.061 | [4] 0.061 | [5] 0.015 | [6] -0.011 | [7] 0.009 | [8] 0.008 | [9] 0.065

MIER3 isoform 2 (UniProt Q7Z3K6)
inactive: [10] 0.03

MKKS (UniProt Q9HB66)
inactive: [1] -0.091 | [5] 0.027 | [10] 0.048 | [7] -0.068 | [8] -0.081 | [9] -0.003

MLLT10 (UniProt P55197)
inactive: [2] 0.063 | [3] -0.233 | [5] 0.079 | [6] -0.168 | [7] 0.041 | [9] 0.083

MRFAP1 (UniProt Q9Y605)
inactive: [1] -0.073 | [2] -0.011 | [3] 0.101 | [4] -0.045 | [10] -0.148 | [6] 0.046 | [7] 0.009 | [8] 0.017 | [9] 0.036

MPV17 (UniProt P39210)
inactive: [1] -0.02 | [2] -0.021 | [3] -0.029 | [5] -0.185 | [6] -0.011 | [7] 0.031 | [8] 0.053 | [9] -0.057

MKRN3 (UniProt Q13064)
inactive: [1] 0.044 | [2] 0.313 | [3] 0.051 | [4] 0.049 | [5] -0.219 | [10] 0.033 | [6] -0.013 | [8] 0.172

MMADHC (UniProt Q9H3L0)
inactive: [2] 0.001 | [3] -0.078 | [4] -0.078 | [10] 0.067 | [6] -0.057 | [7] 0.108 | [8] 0.04 | [9] 0.029

MINDY2 (UniProt Q8NBR6)
inactive: [5] 0.031 | [7] -0.089 | [8] -0.082

MKRN1 (UniProt Q9UHC7)
inactive: [2] 0.114 | [3] -0.174 | [4] -0.074 | [5] 0.122 | [10] -0.001 | [6] -0.068 | [7] 0.016 | [8] 0.015 | [9] -0.175

MRPL21 (UniProt Q7Z2W9)
inactive: [1] 0.087 | [2] 0.001 | [3] 0.011 | [4] -0.058 | [5] 0.164 | [10] -0.059 | [6] 0.068 | [7] 0.054 | [8] -0.02 | [9] -0.085

2 entries drawn at random from those above:
MINDY2 (UniProt Q8NBR6)
inactive: [5] 0.031 | [7] -0.089 | [8] -0.082

MOB3A (UniProt Q96BX8)
inactive: [1] 0.227 | [2] 0.299 | [3] 0.035 | [4] 0 | [10] -0.081 | [6] 0.125 | [7] -0.056 | [8] -0.008 | [9] 0.071
